Results are given in words; binding and its absence hold for the method and conditions named. In cells and extracts the contact can be indirect. Some binding calls cover weakened binding; strength is not graded here. Where a sequence is shown, tags or fusion partners need not be part of it.
Target: T1, GIT1 C-terminal fragment (aa 371-end) (mouse) (UniProt Q68FF6)
T1 sequence: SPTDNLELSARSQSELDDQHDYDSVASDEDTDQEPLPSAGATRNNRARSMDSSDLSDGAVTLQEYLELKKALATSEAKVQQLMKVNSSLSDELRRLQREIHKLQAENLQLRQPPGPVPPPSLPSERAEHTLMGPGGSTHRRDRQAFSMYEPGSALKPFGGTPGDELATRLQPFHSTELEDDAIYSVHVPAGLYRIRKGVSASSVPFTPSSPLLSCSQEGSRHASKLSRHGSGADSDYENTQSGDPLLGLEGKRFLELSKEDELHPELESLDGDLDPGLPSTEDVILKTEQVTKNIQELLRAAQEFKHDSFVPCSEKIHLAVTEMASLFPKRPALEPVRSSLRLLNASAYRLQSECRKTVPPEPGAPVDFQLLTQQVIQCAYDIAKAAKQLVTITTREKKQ
Test: pull-down

binding: binds
B1: GIT1 N-terminal fragment (aa 1-371) of the GST pull-down (domain or fragment, UniProt Q68FF6 1-371)
chain: MSRKGPRAEVCADCSAPDPGWASISRGVLVCDECCSVHRSLGRHISIVKHLRHSAWPPTLLQMVHTLASNGANSIWEHSLLDPAQVQSGRRKANPQDKVHPIKSEFIRAKYQMLAFVHKLPCRDDDGVTAKDLSKQLHSSVRTGNLETCLRLLSLGAQANFFHPEKGTTPLHVAAKAGQTLQAELLVVYGADPGSPDVNGRTPIDYARQAGHHELAERLVECQYELTDRLAFYLCGRKPDHKNGHYIIPQMADRSRQKCMSQSLDLSELAKAAKKKLQALSNRLFEELAMDVYDEVDRRENDAVWLATQNHSTLVTERSAVPFLPVNPEYSATRNQGRQKLARFNAREFATLIIDILSEAKRRQQGKSLSS

Source: article doi:10.1101/2019.12.18.881771 (bioRxiv, 2019)
